No constants are given. Whether binding was seen depends on the method and setting. In cells and extracts the contact can be indirect. Binding can be weak; no strength is given. Sequences can lack the tags named with a protein.
Molecular target: mouse iRhom2^pDEAD-3xHA (mouse) (UniProt Q80WQ6)
Assay: co-IP; lysates in 1% Triton X-100, 150 mM NaCl, 50 mM Tris-HCl pH 7.5; anti-HA or anti-V5 magnetic beads 1 hr at 4°C; wash with 300 mM NaCl; western blot; HEK293T cells (wild type, ADAM17 KO, FRMD8 KO, or iRhom1/2 DKO reconstituted with iRhom2^WT-3xHA; with or without 200 nM PMA for 30 min)

Amino acid sequences for entries named in this document (tags omitted). A change or cut given only in a name is not applied to a line headed by its entry.
UniProt Q80WQ6: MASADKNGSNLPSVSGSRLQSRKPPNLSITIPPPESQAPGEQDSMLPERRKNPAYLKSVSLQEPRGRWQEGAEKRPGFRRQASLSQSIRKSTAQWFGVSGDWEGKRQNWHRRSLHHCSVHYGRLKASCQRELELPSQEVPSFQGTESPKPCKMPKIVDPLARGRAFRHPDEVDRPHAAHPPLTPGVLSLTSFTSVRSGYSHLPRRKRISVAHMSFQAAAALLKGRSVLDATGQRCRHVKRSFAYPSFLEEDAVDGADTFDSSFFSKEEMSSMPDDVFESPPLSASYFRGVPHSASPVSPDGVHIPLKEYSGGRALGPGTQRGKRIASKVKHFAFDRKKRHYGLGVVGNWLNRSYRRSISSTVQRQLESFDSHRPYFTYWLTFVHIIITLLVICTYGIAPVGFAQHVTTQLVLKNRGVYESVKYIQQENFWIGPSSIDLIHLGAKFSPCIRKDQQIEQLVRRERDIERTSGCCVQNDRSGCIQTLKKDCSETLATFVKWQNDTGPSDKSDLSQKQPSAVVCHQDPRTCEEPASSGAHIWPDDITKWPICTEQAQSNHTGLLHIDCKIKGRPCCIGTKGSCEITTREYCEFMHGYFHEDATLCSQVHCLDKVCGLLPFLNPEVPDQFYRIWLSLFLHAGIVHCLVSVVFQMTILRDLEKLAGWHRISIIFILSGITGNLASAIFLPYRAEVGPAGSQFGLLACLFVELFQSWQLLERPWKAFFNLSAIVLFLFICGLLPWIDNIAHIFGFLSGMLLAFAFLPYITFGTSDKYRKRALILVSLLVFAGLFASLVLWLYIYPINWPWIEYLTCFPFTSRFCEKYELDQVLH

binding: binds
B1: human FRMD8-V5 (protein, UniProt Q9BZ67-1 1-464)
chain: MDGTEGSAGQPGPAERSHRSSVSSVGARAADVLVYLADDTVVPLAVENLPSLSAHELHRAVREVLQLPDIALDVFALWLVSPLLEVQLKPKHQPYKLGRQWPELLLRFTSAPDDDVAMDEPFLQFRRNVFFPKRRELQIHDEEVLRLLYEEAKGNVLAARYPCDVEDCEALGALVCRVQLGPYQPGRPAACDLREKLDSFLPAHLCKRGQSLFAALRGRGARAGPGEQGLLNAYRQVQEVSSDGGCEAALGTHYRAYLLKCHELPFYGCAFFHGEVDKPAQGFLHRGGRKPVSVAISLEGVHVIDSREKHVLLGLRFQELSWDHTSPEEEEPILWLEFDGDSEGTPVNKLLKIYSKQAELMSSLIEYCIELSQAAEPAGPQDSATGSPSDPSSSLAPVQRPKLRRQGSVVSSRIQHLSTIDYVEDGKGIRRVKPKRTTSFFSRQLSLGQGSYTVVQPGDSLEQG
